Source: patent US20240321457A1, “SYSTEMS FOR AND METHODS OF TREATMENT SELECTION” (THE REGENTS OF THE UNIVERSITY OF CALIFORNIA, priority 2020, published 2024)
No constants are given. Whether binding was seen depends on the method and setting. In cells and extracts the contact can be indirect. Some entries that bind do so weakly or less than the wild type.

Sequences of proteins named here, by UniProt entry; tags and fusion partners are left off. Residues count along the entry.
UniProt P38398: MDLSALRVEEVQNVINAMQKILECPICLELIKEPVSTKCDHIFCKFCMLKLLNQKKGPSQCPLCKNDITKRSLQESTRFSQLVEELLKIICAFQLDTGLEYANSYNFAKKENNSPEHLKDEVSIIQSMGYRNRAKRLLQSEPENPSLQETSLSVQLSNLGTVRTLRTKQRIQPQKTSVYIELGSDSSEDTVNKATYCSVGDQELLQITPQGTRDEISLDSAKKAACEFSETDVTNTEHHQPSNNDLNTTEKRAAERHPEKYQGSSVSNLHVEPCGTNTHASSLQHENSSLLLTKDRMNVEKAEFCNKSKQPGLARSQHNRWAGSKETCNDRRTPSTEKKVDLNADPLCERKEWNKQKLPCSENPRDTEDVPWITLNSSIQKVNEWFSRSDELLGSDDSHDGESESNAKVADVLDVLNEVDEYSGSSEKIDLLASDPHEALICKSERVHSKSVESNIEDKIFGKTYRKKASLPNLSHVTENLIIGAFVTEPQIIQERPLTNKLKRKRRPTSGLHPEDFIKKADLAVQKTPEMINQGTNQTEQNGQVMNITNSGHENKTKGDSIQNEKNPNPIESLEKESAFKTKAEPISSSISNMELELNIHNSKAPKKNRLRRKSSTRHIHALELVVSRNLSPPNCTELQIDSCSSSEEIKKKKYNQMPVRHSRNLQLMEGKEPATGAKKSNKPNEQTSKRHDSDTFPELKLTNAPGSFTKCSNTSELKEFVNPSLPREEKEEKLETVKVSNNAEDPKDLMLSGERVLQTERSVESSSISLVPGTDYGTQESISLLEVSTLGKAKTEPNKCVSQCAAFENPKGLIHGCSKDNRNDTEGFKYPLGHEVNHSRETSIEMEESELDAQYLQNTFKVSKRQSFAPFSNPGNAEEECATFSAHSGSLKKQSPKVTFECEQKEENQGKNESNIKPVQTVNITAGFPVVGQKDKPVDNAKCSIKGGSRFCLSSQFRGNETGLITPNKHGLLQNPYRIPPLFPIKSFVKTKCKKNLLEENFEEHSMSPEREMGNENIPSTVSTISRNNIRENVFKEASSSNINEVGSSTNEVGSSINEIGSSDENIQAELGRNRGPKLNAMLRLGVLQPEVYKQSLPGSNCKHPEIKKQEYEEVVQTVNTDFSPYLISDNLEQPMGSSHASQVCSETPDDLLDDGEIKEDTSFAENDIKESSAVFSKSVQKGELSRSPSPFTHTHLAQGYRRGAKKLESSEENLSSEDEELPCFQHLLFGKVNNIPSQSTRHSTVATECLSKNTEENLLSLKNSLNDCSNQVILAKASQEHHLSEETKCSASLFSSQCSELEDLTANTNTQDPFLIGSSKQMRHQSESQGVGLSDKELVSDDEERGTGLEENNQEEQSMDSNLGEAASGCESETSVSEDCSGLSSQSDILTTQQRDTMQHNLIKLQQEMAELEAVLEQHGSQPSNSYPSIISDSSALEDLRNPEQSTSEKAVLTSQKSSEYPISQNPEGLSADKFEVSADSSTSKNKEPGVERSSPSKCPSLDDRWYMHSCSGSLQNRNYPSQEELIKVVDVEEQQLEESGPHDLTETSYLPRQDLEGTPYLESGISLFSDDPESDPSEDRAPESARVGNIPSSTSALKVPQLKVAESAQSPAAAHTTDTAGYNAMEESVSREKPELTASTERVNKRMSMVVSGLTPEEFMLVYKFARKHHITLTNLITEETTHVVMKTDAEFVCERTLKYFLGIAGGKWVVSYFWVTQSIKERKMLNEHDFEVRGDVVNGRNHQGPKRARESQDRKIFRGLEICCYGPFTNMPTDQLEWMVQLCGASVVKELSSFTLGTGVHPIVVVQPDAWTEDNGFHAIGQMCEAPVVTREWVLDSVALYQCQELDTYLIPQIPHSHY
UniProt P62136, residues 2-330: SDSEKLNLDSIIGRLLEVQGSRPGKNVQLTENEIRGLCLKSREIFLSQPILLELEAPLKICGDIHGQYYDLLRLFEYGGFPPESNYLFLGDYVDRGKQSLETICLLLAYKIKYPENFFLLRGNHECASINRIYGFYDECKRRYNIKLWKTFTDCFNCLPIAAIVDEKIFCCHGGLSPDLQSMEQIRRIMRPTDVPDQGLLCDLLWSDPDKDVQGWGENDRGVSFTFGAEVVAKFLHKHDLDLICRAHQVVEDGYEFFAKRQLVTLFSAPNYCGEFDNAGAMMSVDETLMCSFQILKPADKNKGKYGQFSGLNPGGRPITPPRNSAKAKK
UniProt Q8TAF3: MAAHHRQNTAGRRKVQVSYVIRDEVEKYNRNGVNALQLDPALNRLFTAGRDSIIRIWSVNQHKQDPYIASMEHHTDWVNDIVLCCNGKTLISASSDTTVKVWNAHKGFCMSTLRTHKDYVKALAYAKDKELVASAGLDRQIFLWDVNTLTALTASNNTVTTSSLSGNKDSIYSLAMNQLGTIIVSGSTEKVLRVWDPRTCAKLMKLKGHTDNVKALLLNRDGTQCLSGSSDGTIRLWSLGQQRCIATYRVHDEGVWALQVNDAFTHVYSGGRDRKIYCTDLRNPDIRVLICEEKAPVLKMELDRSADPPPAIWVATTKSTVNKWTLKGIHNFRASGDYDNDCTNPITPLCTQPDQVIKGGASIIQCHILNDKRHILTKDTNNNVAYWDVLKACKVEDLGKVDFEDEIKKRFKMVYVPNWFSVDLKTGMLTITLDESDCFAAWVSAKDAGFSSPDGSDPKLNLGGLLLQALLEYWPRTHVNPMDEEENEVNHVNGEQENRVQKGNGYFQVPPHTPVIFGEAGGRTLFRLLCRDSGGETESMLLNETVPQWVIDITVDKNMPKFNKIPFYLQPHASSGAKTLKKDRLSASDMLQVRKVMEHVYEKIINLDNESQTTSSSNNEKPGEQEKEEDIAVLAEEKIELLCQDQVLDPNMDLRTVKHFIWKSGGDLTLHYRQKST
UniProt P62140, residues 2-327: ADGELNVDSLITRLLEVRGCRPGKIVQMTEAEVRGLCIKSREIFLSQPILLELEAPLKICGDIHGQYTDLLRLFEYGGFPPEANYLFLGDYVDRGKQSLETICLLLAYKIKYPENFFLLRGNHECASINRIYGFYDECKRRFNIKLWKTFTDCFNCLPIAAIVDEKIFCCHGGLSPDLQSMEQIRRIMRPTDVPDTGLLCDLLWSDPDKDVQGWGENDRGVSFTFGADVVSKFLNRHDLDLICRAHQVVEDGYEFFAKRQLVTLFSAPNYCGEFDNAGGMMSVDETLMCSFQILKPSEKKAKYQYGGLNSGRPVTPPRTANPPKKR
UniProt P36873, residues 2-323: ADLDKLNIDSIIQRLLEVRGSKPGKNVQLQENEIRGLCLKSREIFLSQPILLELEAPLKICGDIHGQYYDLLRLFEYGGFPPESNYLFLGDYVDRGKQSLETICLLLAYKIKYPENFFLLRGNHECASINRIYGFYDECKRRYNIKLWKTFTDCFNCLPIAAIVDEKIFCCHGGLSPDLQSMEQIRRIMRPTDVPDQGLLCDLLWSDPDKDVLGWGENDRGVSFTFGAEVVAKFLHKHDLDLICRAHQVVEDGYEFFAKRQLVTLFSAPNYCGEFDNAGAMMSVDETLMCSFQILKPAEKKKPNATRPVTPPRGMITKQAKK
UniProt Q96SB3: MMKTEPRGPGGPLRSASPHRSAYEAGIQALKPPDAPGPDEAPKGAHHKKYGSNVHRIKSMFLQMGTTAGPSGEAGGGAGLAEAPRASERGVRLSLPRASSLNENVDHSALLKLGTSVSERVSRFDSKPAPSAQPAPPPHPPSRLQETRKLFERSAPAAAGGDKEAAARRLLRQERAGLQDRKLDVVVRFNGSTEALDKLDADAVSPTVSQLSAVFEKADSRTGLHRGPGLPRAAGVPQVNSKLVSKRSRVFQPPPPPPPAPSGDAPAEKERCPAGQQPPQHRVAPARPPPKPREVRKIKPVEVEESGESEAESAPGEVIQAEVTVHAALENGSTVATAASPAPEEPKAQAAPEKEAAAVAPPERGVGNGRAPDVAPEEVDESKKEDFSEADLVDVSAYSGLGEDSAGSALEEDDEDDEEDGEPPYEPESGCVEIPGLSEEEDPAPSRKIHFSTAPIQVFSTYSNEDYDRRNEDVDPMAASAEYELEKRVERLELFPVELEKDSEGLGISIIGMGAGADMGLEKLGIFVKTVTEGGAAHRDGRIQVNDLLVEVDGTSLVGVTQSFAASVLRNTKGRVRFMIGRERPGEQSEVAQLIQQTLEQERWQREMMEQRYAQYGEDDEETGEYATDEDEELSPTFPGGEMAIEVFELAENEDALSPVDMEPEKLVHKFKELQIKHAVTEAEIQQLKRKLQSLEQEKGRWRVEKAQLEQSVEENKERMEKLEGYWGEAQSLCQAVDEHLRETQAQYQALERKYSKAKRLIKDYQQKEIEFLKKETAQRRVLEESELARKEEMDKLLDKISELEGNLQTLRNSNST

How the values were obtained:
BRCA1 (human) [1] = target: BRCA1 (human) (UniProt P38398); experiment: reciprocal AP-MS, 3xFLAG-Spinophilin bait, MDA-MB-231 cells
PPP1CA (human) [2] = target: PPP1CA (human) (UniProt P62136); experiment: as above
WDR48 (human) = WDR48 (human) (UniProt Q8TAF3); experiment: as above
PPP1CB (human) [3] = target: PPP1CB (human) (UniProt P62140); experiment: as above
MCM10 (human) = target: T1, MCM10 (human) (UniProt Q7L590); experiment: as above
T1 sequence (looked up): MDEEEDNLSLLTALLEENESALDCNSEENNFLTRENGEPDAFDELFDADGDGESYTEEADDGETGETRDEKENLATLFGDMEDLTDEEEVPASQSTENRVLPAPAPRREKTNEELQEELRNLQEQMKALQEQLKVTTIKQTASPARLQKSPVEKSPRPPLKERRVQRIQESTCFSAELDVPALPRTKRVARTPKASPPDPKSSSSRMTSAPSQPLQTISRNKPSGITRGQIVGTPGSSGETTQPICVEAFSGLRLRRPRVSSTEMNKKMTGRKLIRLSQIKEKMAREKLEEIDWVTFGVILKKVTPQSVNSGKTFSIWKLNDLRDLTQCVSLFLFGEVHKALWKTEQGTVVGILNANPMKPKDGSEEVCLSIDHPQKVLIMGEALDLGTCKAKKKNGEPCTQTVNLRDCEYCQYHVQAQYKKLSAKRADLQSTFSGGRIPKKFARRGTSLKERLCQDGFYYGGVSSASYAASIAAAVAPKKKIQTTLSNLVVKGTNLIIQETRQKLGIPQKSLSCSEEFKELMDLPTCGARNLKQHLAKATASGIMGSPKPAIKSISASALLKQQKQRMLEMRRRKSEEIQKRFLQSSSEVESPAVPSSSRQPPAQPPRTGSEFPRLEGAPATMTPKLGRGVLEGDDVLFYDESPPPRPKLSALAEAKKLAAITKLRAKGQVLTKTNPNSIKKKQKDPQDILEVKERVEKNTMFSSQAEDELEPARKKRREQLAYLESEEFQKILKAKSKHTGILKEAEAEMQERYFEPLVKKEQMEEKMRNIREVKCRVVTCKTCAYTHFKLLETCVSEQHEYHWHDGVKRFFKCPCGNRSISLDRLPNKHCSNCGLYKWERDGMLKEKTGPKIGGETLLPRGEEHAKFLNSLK

PPP1CC (human) [4] = target: PPP1CC (human) (UniProt P36873); experiment: as above
BRCA1 (human) [5] = target: BRCA1 (human) (UniProt P38398); experiment: AP-MS, 3xFLAG-Spinophilin bait, MDA-MB-231 cells
PPP1CA (human) [6] = target: PPP1CA (human) (UniProt P62136); experiment: AP-MS, 3xFLAG-Spinophilin bait, MDA-MB-231 cells
PPP1CB (human) [7] = target: PPP1CB (human) (UniProt P62140); experiment: AP-MS, 3xFLAG-Spinophilin bait, MDA-MB-231 cells
PPP1CC (human) [8] = target: PPP1CC (human) (UniProt P36873); experiment: AP-MS, 3xFLAG-Spinophilin bait, MDA-MB-231 cells

Measured: binding

Spinophilin (from UniProt Q96SB3 1-817)
binds: all assays above
